Measurements: PMC6894070, “The Plasmodium falciparum Hsp70-x chaperone assists the heat stress response of the malaria parasite” (The FASEB Journal, 2019)

Biological target: T1, J-domain of P. falciparum Hsp40 cochaperone PFA0660w (PFA0660wJ), aa 81-148 (P. falciparum) (UniProt Q8I2E1)
T1 sequence: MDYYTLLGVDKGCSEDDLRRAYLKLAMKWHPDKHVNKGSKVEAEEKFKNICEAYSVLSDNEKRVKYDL
Test: NMR titration; 15N-labelled PFA0660wJ titrated with unlabelled chaperone; HSQC peak intensity changes; 25°C; 20 mM sodium phosphate pH 7.4, 150 mM NaCl, 2 mM DTT; both purified

In the case of “Plasmodium falciparum Hsp70-x (PfHsp70-x), full-length construct aa 25-679 (from UniProt K7NTP5)”, the binding is reported as “binds”.

These are yes or no findings as the source states them, for the method shown. Binding can be weak; no strength is given.
